The target in this experiment is CDK1 (human) (UniProt P06493). Description: co-IP; in SK-HEP-1 cells; detection by Western blot; bait, antibodies and buffers not told. Background: In western blotting, separated proteins are transferred to a membrane and probed.

Amino acid sequences for entries named in this document (tags omitted).
UniProt P06493: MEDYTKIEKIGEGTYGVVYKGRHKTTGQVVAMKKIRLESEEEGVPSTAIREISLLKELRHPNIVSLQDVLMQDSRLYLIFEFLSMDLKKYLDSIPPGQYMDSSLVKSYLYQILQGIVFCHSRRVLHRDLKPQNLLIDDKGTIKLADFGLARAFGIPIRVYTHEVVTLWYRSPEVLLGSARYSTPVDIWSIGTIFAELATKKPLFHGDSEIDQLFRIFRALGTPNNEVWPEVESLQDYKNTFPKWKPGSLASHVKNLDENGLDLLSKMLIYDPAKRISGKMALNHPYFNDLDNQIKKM

These are yes or no findings as the source states them, for the method shown. In cells and extracts the contact can be indirect. Some entries that bind do so weakly or less than the wild type.

As for “DEP domain containing 1B (DEPDC1B) (from UniProt Q8WUY9-1 1-529)”, the binding entry is recorded as “binds”.

The values above are taken from article PMC8436915.
